The results in this text go back to publication PMC8359183, “The periplasmic domains of Vibriocholerae ToxR and ToxS are forming a strong heterodimeric complex independent on the redox state of ToxR cysteines” (Molecular Microbiology, 2021).

Results are given in words; binding and its absence hold for the method and conditions named.

The target in the assay is periplasmic domain of Vibrio cholerae ToxR, oxidized, with an intramolecular disulfide bond (ToxRp-ox) (Vibrio cholerae). Briefly: NMR relaxation (rotational correlation time from 15N T1 and T2); both purified.

B1: periplasmic domain of Vibrio cholerae ToxR, oxidized, with an intramolecular disulfide bond (ToxRp-ox) (domain or fragment)
chain: PSQTSFKPLTVVDGVAVNMPNNHPDLSNWLPSIELCVKKYNEKHTGGLKPIEVIATGGQNNQLTLNYIHSPEVSGENITLRIVANPNDAIKVCE
notes: also called pToxR-ox; ToxRp-ox-V.c
Turning to B1, the binding result is reported as “no binding”.
